# Reference: paper PMC3946611, “hCLE/C14orf166 Associates with DDX1-HSPC117-FAM98B in a Novel Transcription-Dependent Shuttling RNA-Transporting Complex” (PLoS ONE, 2014)
# Amino acid sequences for entries named in this document (tags omitted).
# UniProt Q9H1R3: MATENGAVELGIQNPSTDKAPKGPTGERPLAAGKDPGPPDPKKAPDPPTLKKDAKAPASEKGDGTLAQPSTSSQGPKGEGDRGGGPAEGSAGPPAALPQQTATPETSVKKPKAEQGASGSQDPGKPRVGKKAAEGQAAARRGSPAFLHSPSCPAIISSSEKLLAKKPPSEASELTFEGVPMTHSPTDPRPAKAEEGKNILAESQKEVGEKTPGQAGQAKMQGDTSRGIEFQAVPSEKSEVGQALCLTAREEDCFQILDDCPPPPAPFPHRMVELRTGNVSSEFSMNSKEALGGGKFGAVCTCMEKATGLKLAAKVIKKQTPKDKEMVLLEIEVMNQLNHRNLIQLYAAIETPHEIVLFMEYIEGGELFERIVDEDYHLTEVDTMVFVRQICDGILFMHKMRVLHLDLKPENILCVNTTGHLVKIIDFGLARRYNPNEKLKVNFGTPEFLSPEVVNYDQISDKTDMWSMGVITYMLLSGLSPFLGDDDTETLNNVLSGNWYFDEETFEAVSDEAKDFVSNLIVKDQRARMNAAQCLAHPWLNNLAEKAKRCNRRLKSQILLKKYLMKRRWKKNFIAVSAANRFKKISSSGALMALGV
# UniProt Q9NRC6: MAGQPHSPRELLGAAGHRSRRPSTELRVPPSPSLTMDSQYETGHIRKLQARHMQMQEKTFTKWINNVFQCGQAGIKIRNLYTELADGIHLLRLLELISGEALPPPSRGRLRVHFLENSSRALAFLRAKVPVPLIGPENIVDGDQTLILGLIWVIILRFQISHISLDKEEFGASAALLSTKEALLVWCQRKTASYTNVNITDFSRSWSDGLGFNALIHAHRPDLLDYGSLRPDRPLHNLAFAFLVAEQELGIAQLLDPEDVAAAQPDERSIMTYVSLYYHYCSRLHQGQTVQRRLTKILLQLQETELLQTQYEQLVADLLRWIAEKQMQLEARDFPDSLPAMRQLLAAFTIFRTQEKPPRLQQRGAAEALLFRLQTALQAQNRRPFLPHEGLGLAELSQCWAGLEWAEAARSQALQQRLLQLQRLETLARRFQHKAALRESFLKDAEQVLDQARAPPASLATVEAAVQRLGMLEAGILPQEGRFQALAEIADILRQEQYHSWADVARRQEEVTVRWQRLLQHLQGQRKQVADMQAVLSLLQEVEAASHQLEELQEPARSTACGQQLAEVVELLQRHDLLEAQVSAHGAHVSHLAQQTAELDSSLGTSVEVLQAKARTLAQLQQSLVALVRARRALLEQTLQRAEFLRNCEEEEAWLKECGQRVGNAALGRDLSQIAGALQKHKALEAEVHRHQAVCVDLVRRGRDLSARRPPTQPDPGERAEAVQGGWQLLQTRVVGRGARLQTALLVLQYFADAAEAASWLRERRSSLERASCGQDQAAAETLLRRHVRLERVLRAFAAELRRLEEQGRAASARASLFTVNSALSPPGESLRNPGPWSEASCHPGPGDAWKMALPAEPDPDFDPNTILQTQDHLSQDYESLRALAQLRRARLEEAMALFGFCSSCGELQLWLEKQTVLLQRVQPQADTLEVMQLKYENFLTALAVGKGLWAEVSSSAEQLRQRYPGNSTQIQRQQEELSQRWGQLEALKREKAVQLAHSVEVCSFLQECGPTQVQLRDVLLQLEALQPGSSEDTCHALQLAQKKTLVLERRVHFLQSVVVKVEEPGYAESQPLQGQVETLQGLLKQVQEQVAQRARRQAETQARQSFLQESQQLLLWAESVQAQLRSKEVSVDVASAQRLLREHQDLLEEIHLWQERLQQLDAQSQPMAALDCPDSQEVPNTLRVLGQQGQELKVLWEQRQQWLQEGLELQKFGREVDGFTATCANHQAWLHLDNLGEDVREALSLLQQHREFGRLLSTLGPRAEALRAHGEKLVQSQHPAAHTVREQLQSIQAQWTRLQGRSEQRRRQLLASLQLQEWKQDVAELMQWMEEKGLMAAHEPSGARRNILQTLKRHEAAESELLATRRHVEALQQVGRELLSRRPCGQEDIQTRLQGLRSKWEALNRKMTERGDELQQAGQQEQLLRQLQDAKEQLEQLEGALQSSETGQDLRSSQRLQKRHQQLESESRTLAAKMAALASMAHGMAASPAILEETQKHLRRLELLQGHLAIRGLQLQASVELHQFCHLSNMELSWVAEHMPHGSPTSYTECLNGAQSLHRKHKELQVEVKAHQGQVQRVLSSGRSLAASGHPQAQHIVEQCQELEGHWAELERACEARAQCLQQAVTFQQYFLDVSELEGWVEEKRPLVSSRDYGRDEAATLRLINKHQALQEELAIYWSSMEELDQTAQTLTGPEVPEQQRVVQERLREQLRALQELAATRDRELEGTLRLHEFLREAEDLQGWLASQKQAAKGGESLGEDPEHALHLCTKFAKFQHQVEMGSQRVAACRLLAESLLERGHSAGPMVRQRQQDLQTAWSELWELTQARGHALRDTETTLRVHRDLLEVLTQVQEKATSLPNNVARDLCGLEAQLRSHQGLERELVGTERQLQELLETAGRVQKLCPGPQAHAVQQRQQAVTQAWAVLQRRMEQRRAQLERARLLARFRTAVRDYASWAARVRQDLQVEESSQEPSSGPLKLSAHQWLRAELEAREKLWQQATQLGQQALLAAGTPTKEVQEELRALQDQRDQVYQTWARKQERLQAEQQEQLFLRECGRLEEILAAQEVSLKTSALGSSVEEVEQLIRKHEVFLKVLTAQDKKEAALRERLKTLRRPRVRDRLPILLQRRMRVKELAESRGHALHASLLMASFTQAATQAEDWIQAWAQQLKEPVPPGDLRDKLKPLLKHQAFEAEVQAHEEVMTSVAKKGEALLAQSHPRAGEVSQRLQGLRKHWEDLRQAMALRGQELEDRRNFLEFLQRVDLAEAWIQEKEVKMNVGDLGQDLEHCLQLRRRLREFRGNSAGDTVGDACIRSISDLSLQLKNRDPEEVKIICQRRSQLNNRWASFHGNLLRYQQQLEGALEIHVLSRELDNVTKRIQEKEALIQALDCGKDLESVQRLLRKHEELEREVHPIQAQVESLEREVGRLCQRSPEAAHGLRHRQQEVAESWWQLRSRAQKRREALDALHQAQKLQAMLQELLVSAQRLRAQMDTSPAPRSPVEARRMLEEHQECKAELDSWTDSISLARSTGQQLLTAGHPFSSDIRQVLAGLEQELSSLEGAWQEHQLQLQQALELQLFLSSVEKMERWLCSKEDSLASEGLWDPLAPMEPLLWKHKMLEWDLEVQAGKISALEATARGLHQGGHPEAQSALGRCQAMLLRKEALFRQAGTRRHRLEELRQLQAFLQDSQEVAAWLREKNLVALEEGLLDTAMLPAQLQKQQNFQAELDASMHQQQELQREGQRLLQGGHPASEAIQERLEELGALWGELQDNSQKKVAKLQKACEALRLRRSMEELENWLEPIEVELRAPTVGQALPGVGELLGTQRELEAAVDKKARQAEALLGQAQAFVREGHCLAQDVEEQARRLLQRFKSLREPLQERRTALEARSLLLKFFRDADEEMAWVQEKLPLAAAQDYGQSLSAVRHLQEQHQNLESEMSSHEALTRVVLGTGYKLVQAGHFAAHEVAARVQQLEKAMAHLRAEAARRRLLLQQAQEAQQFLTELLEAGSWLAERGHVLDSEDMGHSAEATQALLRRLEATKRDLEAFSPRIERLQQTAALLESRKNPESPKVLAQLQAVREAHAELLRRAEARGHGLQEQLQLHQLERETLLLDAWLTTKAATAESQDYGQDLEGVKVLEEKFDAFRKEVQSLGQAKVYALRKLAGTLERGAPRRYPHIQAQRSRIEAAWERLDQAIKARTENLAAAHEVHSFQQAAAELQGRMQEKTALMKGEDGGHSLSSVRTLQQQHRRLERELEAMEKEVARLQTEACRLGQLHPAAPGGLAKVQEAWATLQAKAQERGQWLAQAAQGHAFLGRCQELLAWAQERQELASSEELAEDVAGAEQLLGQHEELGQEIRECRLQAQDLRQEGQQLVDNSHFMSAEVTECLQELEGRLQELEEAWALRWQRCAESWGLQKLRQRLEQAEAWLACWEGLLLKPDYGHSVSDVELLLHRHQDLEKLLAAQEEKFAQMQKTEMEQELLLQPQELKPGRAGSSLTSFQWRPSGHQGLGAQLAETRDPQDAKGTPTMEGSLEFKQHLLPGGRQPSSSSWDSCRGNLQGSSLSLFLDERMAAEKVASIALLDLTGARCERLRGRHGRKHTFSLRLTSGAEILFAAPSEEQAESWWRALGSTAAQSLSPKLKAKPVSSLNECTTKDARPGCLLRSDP
# T1: hCLE-TAP tagged protein, purified as hCLE-CBD (human) (UniProt Q9Y224)
# T1 sequence: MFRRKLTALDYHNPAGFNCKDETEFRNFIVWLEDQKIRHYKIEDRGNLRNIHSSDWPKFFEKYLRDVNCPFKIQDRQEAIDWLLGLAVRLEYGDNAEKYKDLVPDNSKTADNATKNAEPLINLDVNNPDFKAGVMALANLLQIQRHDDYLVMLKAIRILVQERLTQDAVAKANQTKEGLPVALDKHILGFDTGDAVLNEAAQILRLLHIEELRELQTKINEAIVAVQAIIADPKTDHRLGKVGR
# Tests used:
# [1] = biological target: T1, hCLE-TAP tagged protein, purified as hCLE-CBD (human); assay: affinity purification with mass spectrometry; TAP purification of hCLE-TAP from cytosolic extracts of transfected HEK293T cells (150 mM NaCl); LC-MS/MS; TAP alone as control
# [2] = biological target: T1, hCLE-TAP tagged protein, purified as hCLE-CBD (human); assay: affinity purification with mass spectrometry; TAP purification of hCLE-TAP from nuclear extracts of transfected HEK293T cells (150 mM NaCl, 10 mM Tris-HCl pH 8.0, 0.1% NP-40); LC-MS/MS; TAP alone as control
Molecule,binding [1],binding [2]
Protein FAM98A (from UniProt Q8NCA5 1-518),binds,binds
"Myosin light chain kinase 2, skeletal/cardiac muscle (from UniProt Q9H1R3 1-596)",binds,binds
"Migration and invasion-inhibitory protein (protein, UniProt Q5JXC2 1-388) MVEAEELAQLRLLNLELLRQLWVGQDAVRRSVARAASESSLESSSSYNSETPSTPETSSTSLSTSCPRGRSSVWGPPDACRGDLRDVARSGVASLPPAKCQHQESLGRPRPHSAPSLGTSSLRDPEPSGRLGDPGPQEAQTPRSILAQQSKLSKPRVTFSEESAVPKRSWRLRPYLGYDWIAGSLDTSSSITSQPEAFFSKLQEFRETNKEECICSHPEPQLPGLRESSGSGVEEDHECVYCYRVNRRLFPVPVDPGTPCRLCRTPRDQQGPGTLAQPAHVRVSIPLSILEPPHRYHIHRRKSFDASDTLALPRHCLLGWDIFPPKSEKSSAPRNLDLWSSVSAEAQHQKLSGTSSPFHPASPMQMLPPTPTWSVPQVPRPHVPRQKP",binds,

# Second part, the molecule after the results:
binding [1],binding [2],Molecule
binds,binds,"Spectrin beta chain, non-erythrocytic 5 (from UniProt Q9NRC6 1-3674)"
binds,,"ATP-binding cassette sub-family F member 2 (protein, UniProt Q9UG63 1-623) MPSDLAKKKAAKKKEAAKARQRPRKGHEENGDVVTEPQVAEKNEANGRETTEVDLLTKELEDFEMKKAAARAVTGVLASHPNSTDVHIINLSLTFHGQELLSDTKLELNSGRRYGLIGLNGIGKSMLLSAIGKREVPIPEHIDIYHLTREMPPSDKTPLHCVMEVDTERAMLEKEAERLAHEDAECEKLMELYERLEELDADKAEMRASRILHGLGFTPAMQRKKLKDFSGGWRMRVALARALFIRPFMLLLDEPTNHLDLDACVWLEEELKTFKRILVLVSHSQDFLNGVCTNIIHMHNKKLKYYTGNYDQYVKTRLELEENQMKRFHWEQDQIAHMKNYIARFGHGSAKLARQAQSKEKTLQKMMASGLTERVVSDKTLSFYFPPCGKIPPPVIMVQNVSFKYTKDGPCIYNNLEFGIDLDTRVALVGPNGAGKSTLLKLLTGELLPTDGMIRKHSHVKIGRYHQHLQEQLDLDLSPLEYMMKCYPEIKEKEEMRKIIGRYGLTGKQQVSPIRNLSDGQKCRVCLAWLAWQNPHMLFLDEPTNHLDIETIDALADAINEFEGGMMLVSHDFRLIQQVAQEIWVCEKQTITKWPGDILAYKEHLKSKLVDEEPQLTKRTHNV"
binds,,"Fragile X mental retardation-interacting protein 2 (protein, UniProt Q7Z417 1-695) MEEKPGQPQPQHHHSHHHPHHHPQQQQQQPHHHHHYYFYNHSHNHHHHHHHQQPHQYLQHGAEGSPKAQPKPLKHEQKHTLQQHQETPKKKTGYGELNGNAGEREISLKNLSSDEATNPISRVLNGNQQVVDTSLKQTVKANTFGKAGIKTKNFIQKNSMDKKNGKSYENKSGENQSVDKSDTIPIPNGVVTNNSGYITNGYMGKGADNDGSGSESGYTTPKKRKARRNSAKGCENLNIVQDKIMQQETSVPTLKQGLETFKPDYSEQKGNRVDGSKPIWKYETGPGGTSRGKPAVGDMLRKSSDSKPGVSSKKFDDRPKGKHASAVASKEDSWTLFKPPPVFPVDNSSAKIVPKISYASKVKENLNKTIQNSSVSPTSSSSSSSSTGETQTQSSSRLSQVPMSALKSVTSANFSNGPVLAGTDGNVYPPGGQPLLTTAANTLTPISSGTDSVLQDMSLTSAAVEQIKTSLFIYPSNMQTMLLSTAQVDLPSQTDQQNLGDIFQNQWGLSFINEPSAGPETVTGKSSEHKVMEVTFQGEYPATLVSQGAEIIPSGTEHPVFPKAYELEKRTSPQVLGSILKSGTTSESGALSLEPSHIGDLQKADTSSQGALVFLSKDYEIESQNPLASPTNTLLGSAKEQRYQRGLERNDSWGSFDLRAAIVYHTKEMESIWNLQKQDPKRIITYNEAMDSPDQ"

# Results are given in words; binding and its absence hold for the method and conditions named. In cells and extracts the contact can be indirect. Here binding means that the protein was enriched with, or labelled near, the bait; the list need not be complete. Sequences can lack the tags named with a protein.
